# Values of other authors in US8232402B2, “Quinolinone farnesyl transferase inhibitors for the treatment of synucleinopathies and other indications” (Link Medicine Corporation, priority 2008, dated 2012).
# At least one structure is not confirmed: it was looked up by name or label, or the drawing left a doubt.
# Conditions: rodents; cited from earlier work
compound,measurement,value
CO[C@H]1C[C@@H]2CC[C@@H](C)[C@@](O)(O2)C(=O)C(=O)N2CCCC[C@H]2C(=O)O[C@H]([C@H](C)C[C@@H]2CC[C@@H](O)[C@H](OC)C2)CC(=O)[C@H](C)/C=C(\C)[C@@H](O)[C@@H](OC)C(=O)[C@H](C)C[C@H](C)/C=C/C=C/C=C/1C [rapamycin],anti-depressive effect,anti-depressive effect
